{"source": "PubChem BioAssay AID1159578 (Peter MacCallum Cancer Centre, 2015)", "aim": "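siRNA pools altering how lymphatic endothelial cells close a scratch wound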 (primary screen)", "cell system": "human lymphatic endothelial cells", "reagent": "siRNA pool against human genes, 40 nM", "time to read-out": "48 h after transfection", "measured": "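High-content imaging of dye-stained cells in a scratch assay measures filled wound area and nuclei per well; duplicate means given as ratio to mock and robust z-score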", "direction": "migration robust z-score: higher = faster migration into the scratch; nuclei per well: higher = more cells in the well", "call rule": "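Migration changed when robust z exceeds 2 or falls below -2 and mean nuclei number is at least 3300; otherwise not called changed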", "calls": "active = migration changed; inactive = no migration change, or too few cells", "note": "This is an unselected part of about 18,000 reagents tested. Of all reagents, about 1,030 (5.7%) got an active call. 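Inactive calls also include pools with fewer than 3300 nuclei, whose migration was not assessed.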 Raw values vary from plate to plate and are shown uncorrected. Further read-outs or replicates are left out here. No sequences are given here."}
{"target":"E2F2 (GeneID 1870)","migration robust z-score":1.87,"migration class with cell-count check":"migration z between -2 and 2; enough cells","nuclei per well, duplicate mean":5554,"Call":"inactive"}
{"target":"BLVRB (GeneID 645)","migration robust z-score":-1.2,"migration class with cell-count check":"migration z between -2 and 2; enough cells","nuclei per well, duplicate mean":3868,"Call":"inactive"}
{"target":"NKD1 (GeneID 85407)","migration robust z-score":-2.36,"migration class with cell-count check":"migration z below -2; enough cells","nuclei per well, duplicate mean":5330,"Call":"active"}
{"target":"MORF4 (GeneID 10934)","migration robust z-score":0.5,"migration class with cell-count check":"migration z between -2 and 2; enough cells","nuclei per well, duplicate mean":5441,"Call":"inactive"}
{"target":"CRYM (GeneID 1428)","migration robust z-score":-2.67,"migration class with cell-count check":"migration z below -2; enough cells","nuclei per well, duplicate mean":5071,"Call":"active"}
{"target":"GOLGA8F (GeneID 100132565)","migration robust z-score":-1.26,"migration class with cell-count check":"migration z between -2 and 2; enough cells","nuclei per well, duplicate mean":5056,"Call":"inactive"}
{"target":"SCLT1 (GeneID 132320)","migration robust z-score":-1.67,"migration class with cell-count check":"migration z between -2 and 2; enough cells","nuclei per well, duplicate mean":7124,"Call":"inactive"}
{"target":"PCED1B (GeneID 91523)","migration robust z-score":-0.48,"migration class with cell-count check":"migration z between -2 and 2; enough cells","nuclei per well, duplicate mean":4621,"Call":"inactive"}
{"target":"FMNL3 (GeneID 91010)","migration robust z-score":-0.09,"migration class with cell-count check":"migration z between -2 and 2; enough cells","nuclei per well, duplicate mean":5068,"Call":"inactive"}
{"target":"GNAT2 (GeneID 2780)","migration robust z-score":-1.25,"migration class with cell-count check":"migration z between -2 and 2; enough cells","nuclei per well, duplicate mean":4920,"Call":"inactive"}

Hits (from the list above):
{"target":"NKD1 (GeneID 85407)","migration robust z-score":-2.36,"migration class with cell-count check":"migration z below -2; enough cells","nuclei per well, duplicate mean":5330,"Call":"active"}
{"target":"CRYM (GeneID 1428)","migration robust z-score":-2.67,"migration class with cell-count check":"migration z below -2; enough cells","nuclei per well, duplicate mean":5071,"Call":"active"}

More results:
{"target":"RABL3 (GeneID 285282)","migration robust z-score":0.25,"migration class with cell-count check":"migration z between -2 and 2; enough cells","nuclei per well, duplicate mean":6301,"Call":"inactive"}
{"target":"HES2 (GeneID 54626)","migration robust z-score":0.44,"migration class with cell-count check":"migration z between -2 and 2; enough cells","nuclei per well, duplicate mean":5554,"Call":"inactive"}
{"target":"S100A14 (GeneID 57402)","migration robust z-score":0.58,"migration class with cell-count check":"migration z between -2 and 2; enough cells","nuclei per well, duplicate mean":5499,"Call":"inactive"}
{"target":"FAM167A (GeneID 83648)","migration robust z-score":-0.15,"migration class with cell-count check":"migration z between -2 and 2; enough cells","nuclei per well, duplicate mean":5401,"Call":"inactive"}
{"target":"HIVEP1 (GeneID 3096)","migration robust z-score":-0.42,"migration class with cell-count check":"migration z between -2 and 2; enough cells","nuclei per well, duplicate mean":5555,"Call":"inactive"}
{"target":"TNFRSF10D (GeneID 8793)","migration robust z-score":-1.66,"migration class with cell-count check":"migration z between -2 and 2; enough cells","nuclei per well, duplicate mean":4241,"Call":"inactive"}
{"target":"GNPDA1 (GeneID 10007)","migration robust z-score":0.84,"migration class with cell-count check":"migration z between -2 and 2; enough cells","nuclei per well, duplicate mean":6992,"Call":"inactive"}
{"target":"CIAO2B (GeneID 51647)","migration robust z-score":0.08,"migration class with cell-count check":"migration z between -2 and 2; enough cells","nuclei per well, duplicate mean":6480,"Call":"inactive"}
{"target":"C21orf91 (GeneID 54149)","migration robust z-score":-0.09,"migration class with cell-count check":"migration z between -2 and 2; enough cells","nuclei per well, duplicate mean":6478,"Call":"inactive"}
{"target":"APOOL (GeneID 139322)","migration robust z-score":-0.58,"migration class with cell-count check":"migration z between -2 and 2; enough cells","nuclei per well, duplicate mean":5016,"Call":"inactive"}
{"target":"C4orf33 (GeneID 132321)","migration robust z-score":-1.83,"migration class with cell-count check":"under 3300 nuclei; migration not judged","nuclei per well, duplicate mean":3015,"Call":"inactive"}
